From publication PMC7948462
These are yes or no findings as the source states them, for the method shown. In cells and extracts the contact can be indirect. Some binding calls cover weakened binding; strength is not graded here.

Sequences of proteins named here, by UniProt entry; tags and fusion partners are left off.
UniProt Q13131: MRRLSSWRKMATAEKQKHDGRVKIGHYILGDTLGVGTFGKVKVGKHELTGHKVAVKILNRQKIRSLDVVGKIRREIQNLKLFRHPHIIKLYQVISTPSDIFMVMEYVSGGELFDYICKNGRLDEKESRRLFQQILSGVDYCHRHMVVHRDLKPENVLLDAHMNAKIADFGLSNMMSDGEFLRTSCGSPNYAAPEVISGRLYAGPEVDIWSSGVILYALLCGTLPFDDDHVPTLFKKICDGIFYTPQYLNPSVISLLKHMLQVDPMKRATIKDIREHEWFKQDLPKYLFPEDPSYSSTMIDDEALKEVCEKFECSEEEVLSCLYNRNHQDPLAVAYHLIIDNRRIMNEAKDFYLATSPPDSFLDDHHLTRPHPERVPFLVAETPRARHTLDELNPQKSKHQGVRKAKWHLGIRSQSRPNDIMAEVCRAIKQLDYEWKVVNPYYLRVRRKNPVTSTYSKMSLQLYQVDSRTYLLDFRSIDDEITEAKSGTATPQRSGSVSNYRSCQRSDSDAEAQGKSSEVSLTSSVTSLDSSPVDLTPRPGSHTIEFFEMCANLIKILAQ
UniProt P46940: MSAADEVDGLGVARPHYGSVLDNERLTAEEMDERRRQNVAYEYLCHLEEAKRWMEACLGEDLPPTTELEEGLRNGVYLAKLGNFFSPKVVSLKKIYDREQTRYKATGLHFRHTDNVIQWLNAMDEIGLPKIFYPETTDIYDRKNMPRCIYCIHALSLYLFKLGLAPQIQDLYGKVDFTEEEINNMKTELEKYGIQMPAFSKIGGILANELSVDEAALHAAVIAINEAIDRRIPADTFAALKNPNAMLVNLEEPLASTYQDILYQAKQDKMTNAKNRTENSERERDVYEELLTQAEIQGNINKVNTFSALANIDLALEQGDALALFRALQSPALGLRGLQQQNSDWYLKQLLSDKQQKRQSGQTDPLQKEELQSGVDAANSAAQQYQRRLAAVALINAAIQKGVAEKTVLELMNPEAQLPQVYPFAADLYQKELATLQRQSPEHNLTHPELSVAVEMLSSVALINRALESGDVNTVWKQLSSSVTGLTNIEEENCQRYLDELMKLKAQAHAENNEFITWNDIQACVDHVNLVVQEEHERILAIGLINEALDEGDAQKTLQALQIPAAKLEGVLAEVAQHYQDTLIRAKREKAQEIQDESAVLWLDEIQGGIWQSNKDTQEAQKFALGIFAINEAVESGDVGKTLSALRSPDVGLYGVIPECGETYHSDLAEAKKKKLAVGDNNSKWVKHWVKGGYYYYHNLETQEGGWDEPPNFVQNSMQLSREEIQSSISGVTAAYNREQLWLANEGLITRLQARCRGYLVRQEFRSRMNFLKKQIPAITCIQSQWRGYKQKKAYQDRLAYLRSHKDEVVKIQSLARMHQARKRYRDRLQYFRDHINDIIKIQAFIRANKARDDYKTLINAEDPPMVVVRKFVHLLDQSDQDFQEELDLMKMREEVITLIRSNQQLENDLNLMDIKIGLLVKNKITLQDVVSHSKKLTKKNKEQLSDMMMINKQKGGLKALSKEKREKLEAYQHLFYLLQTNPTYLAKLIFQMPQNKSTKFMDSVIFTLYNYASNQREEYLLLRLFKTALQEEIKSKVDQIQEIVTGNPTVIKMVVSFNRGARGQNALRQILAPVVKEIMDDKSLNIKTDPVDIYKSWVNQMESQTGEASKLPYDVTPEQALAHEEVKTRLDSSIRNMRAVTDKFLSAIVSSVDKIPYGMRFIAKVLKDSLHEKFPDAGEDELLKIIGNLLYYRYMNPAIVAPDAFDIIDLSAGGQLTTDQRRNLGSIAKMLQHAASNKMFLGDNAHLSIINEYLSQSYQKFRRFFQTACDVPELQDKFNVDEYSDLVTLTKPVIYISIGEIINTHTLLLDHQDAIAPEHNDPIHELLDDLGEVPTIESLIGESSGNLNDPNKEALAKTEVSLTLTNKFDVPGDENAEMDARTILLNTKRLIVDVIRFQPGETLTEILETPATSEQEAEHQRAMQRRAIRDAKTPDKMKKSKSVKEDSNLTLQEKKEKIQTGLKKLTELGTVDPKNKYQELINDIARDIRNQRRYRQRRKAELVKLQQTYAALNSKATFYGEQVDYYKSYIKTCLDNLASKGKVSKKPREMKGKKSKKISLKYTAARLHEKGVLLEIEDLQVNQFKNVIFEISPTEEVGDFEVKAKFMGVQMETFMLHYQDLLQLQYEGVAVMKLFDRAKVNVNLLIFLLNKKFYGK

Target: GFP-AMPKα1 (GFP-tagged α1 subunit of AMP-activated protein kinase) (UniProt Q13131)
Experiment: co-IP; GFP-tagged proteins immunoprecipitated with GFP-Trap Agarose from lysates of transfected HEK-293 cells, 3 h; blot with anti-IQGAP1

binding: binds
Substance: endogenous IQGAP1 (IQ motif-containing GTPase-activating protein 1) (from UniProt P46940 1-1657)
